Values from PubChem BioAssay AID743454 (Peter MacCallum Cancer Centre, 2014).
The whole screen tested about 18,000 reagents; this is an unselected part. Over the whole deposit, 450 (2.5%) were called active. 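Single biological run; no consistent viability z cut-off exists, so the class columns, not z-scores, define the calls.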

Assay: 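Knock-downs lowering viability or raising caspase 3/7 activity in vorinostat-treated resistant cells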 (primary screen)
System: human HCT116-VR colon cancer cells, selected for vorinostat resistance
Reagent: siRNA pool against human genes, 40 nM siRNA pool
Duration: vorinostat for 24 h, read-out about 72 h after transfection
Treatment: vorinostat at 2.5 µM final
Detection: 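Cell viability by CellTiter-Fluor and caspase 3/7 activity by luminescence, each scaled to mock wells per plate, duplicates averaged, then robust z-scored over all plates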
Scale: viability robust z-score: higher = more viable cells than screen typical; caspase robust z-score: higher = more caspase 3/7 activity than screen typical
Hit rule: 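a knock-down is a hit when classed RV1 or RV2 for lowered viability, or CA1 or CA2 for caspase activation; those lethal without drug were dropped; hits were retested singly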

Silencing of MPST (mercaptopyruvate sulfurtransferase) gave: viability hit class no change; caspase hit class no change; viability robust z-score -1.68; caspase robust z-score -0.41; inactive. With knock-down of DCTD (dCMP deaminase), the record shows viability hit class no change; caspase hit class no change; viability robust z-score 1.52; caspase robust z-score 0.08; inactive. DKK4 (dickkopf Wnt signaling pathway inhibitor 4) gave viability hit class no change; caspase hit class no change; viability robust z-score 1.08; caspase robust z-score -1.19; inactive. With knock-down of VMA12 (vacuolar ATPase assembly factor VMA12) the results were viability hit class no change; caspase hit class no change; viability robust z-score -0.28; caspase robust z-score -0.86; inactive. Silencing of SH3GL2 (SH3 domain containing GRB2 like 2, endophilin A1) gave: viability hit class no change; caspase hit class no change; viability robust z-score 0.78; caspase robust z-score -0.59; inactive. With knock-down of TMEM234 (transmembrane protein 234), the screen gave viability hit class no change; caspase hit class no change; viability robust z-score -0.93; caspase robust z-score 0.69; inactive.

GRAMD4 (GRAM domain containing 4) showed viability hit class no change; caspase hit class no change; viability robust z-score 0.4; caspase robust z-score -0.11; inactive. Depletion of PIEZO2 (piezo type mechanosensitive ion channel component 2) gave: viability hit class no change; caspase hit class no change; viability robust z-score -1.36; caspase robust z-score -0.68; inactive. ESM1 (endothelial cell specific molecule 1) scored viability hit class no change; caspase hit class no change; viability robust z-score 0.6; caspase robust z-score -0.72; inactive. Knock-down of USP17L9P gave: viability hit class no change; caspase hit class no change; viability robust z-score -0.86; caspase robust z-score 1.69; inactive. For CRMP1 (collapsin response mediator protein 1), the entry reads viability hit class no change; caspase hit class no change; viability robust z-score 1.06; caspase robust z-score -0.02; inactive. CTCFL (CCCTC-binding factor like) gave viability hit class no change; caspase hit class no change; viability robust z-score -0.13; caspase robust z-score 2.76; inactive.

Depletion of RSPO4 (R-spondin 4) resulted in: viability hit class no change; caspase hit class no change; viability robust z-score -0.92; caspase robust z-score -0.8; inactive. With knock-down of NUDT1 (nudix hydrolase 1) the results were viability hit class no change; caspase hit class no change; viability robust z-score -1.67; caspase robust z-score -0.91; inactive.

Limited to “viability robust z-score”, for 2 of the entries above:
PIEZO2 (piezo type mechanosensitive ion channel component 2): -1.36
ESM1 (endothelial cell specific molecule 1): 0.6
